The values that follow come from paper PMC12431657, “Discovery and mechanistic insights of dibenzoylmethane as a broad spectrum inhibitor of coronavirus” (PLOS Pathogens, 2025).

Like-named read-outs stand apart in the source and are kept apart here. Hit rate of the full screen: of about 3,300 compounds, about 60 (2%) showed an effect of 50% or more. Some of the results follow.

In the test the test system is HCoV-OC43. Also noted: species or system RD; HTS, protection from HCoV-OC43 induced cell death, luminescent cell viability (CellCounting-Lite 2.0), inhibition rate. The conditions noted are these: 24 h post infection, 1 h compound pre-incubation, 10 µM, inhibitor.

In the case of `O=C1c2ccccc2-n2c1nc1ccccc1c2=O` [Tryptanthrin], the “OC43 Inhibition rate” value is given as -1%.

Consider `C[C@@]1(CO)C[C@@H](O)C[C@@]2(C)[C@@H]3CC[C@](C)([C@@H](O)CO)C=C3CC[C@H]12` [Kirenol], for which the “OC43 Inhibition rate” value is reported as -0.2%. For the compound `COc1cc2c(cc1O)C[C@@H]1NCCc3cc(OC)c(O)c-2c31` [Norisoboldine], the “OC43 Inhibition rate” value is reported as 0.7%.

Turning to `C[C@H]1O[C@@H](O[C@H]2CC[C@@]3(C)[C@@H](CC[C@]4(C)[C@@H]3C=C[C@]35OC[C@@]6(CCC(C)(C)C[C@H]63)[C@@H](O)C[C@]54C)[C@]2(C)CO)[C@H](O)[C@@H](O[C@@H]2O[C@H](CO)[C@@H](O)[C@H](O)[C@H]2O)[C@H]1O` [Saikosaponin A], the “OC43 Inhibition rate” value came to 11.9%.

On to `COc1cc2c(O)c3c(c(-c4ccc5c(c4)OCO5)c2cc1OC)C(=O)OC3` [Diphyllin], for which the “OC43 Inhibition rate” value is on record as -0.3%. For the compound `CC(C)=CCc1c(O)cc2oc3cc(O)c(O)c(CC=C(C)C)c3c(=O)c2c1O` [Gamma-Mangostin], the “OC43 Inhibition rate” value is given as 3.3%.

Regarding `C[C@@H]1C(=O)O[C@H](C)[C@H]1C[C@@H](O)[C@](C)(O)[C@H]1CC[C@@]2(O)C3=CC(=O)[C@@H]4C[C@@H](O)[C@@H](O)C[C@]4(C)[C@H]3CC[C@]12C` [Cyasterone], the “OC43 Inhibition rate” value is on record as -0.4%.

As to `COc1ccc([C@@H]2CC(=O)c3c(O)cc(O[C@@H]4O[C@H](CO)[C@@H](O)[C@H](O)[C@H]4O)cc3O2)cc1` [Isosakuranin], the “OC43 Inhibition rate” value is given as -2.3%. For the compound `C/C1=C\[C@@H]2[C@H](C/C=C(/CO)[C@@H](O)[C@@H]3[C@@H](O)[C@@H](C)C[C@]3(O)C1=O)C2(C)C` [17-Hydroxyisolathyrol], the “OC43 Inhibition rate” value came out at 0.6%. Still for that read-out and setting: the figure for `CSC(=O)OCC1=C[C@H](O)[C@@H]2C(C(=O)O)=CO[C@@H](O[C@@H]3O[C@H](CO)[C@@H](O)[C@H](O)[C@H]3O)[C@H]12` [Paederosidic acid] is 1.2%; for `O=c1c(-c2ccccc2)coc2ccccc12` [Isoflavone] it is -0.2%; for `OC[C@H]1O[C@@H](Oc2cc3c(O)cc(O)cc3[o+]c2-c2cc(O)c(O)c(O)c2)[C@H](O)[C@@H](O)[C@@H]1O` [Delphinidin 3-glucoside (chloride)] it is -0.6%. On the same count and under the same terms, as for `CC(=O)N[C@@H](CCC(=O)O)C(=O)O` [N-Acetyl-L-glutamic acid], the figure is -1.2%. On to `CC(=O)OCC[N+](C)(C)C` [Acetylcholine (iodide)], for which the “OC43 Inhibition rate” value (OC43 Inhibition rate, 24 h) was -0.8%. Regarding `COc1c(-c2ccccc2)oc2cc(O)cc(O)c2c1=O` [3-O-Methylgalangin], the “OC43 Inhibition rate” value was determined as 13.9%. `C=C(C)C(=O)O[C@H]1CC2=C[C@@H](C/C(C)=C/[C@H]3OC(=O)C(=C)[C@H]13)OC2=O` [Deoxyelephantopin]: the “OC43 Inhibition rate” value is reported as 0.2%.

As to `NCCOP(=O)(O)O` [Phosphorylethanolamine], the “OC43 Inhibition rate” value is reported as -0.9%. Consider `C=CCCN1C[C@@H]2C[C@H](C1)c1cccc(=O)n1C2` [Rhombifoline], for which the “OC43 Inhibition rate” value is recorded as -0.2%. On the same count and under the same terms, as for `CC(=O)O[C@H]1C[C@@]2(C)[C@@H](C[C@H]1O)C(=O)C=C1[C@@H]2CC[C@]2(C)[C@@H]([C@@](C)(O)[C@H](O)CCC(C)(C)O)CC[C@@]12O` [2-O-Acetyl-20-hydroxyecdysone], the figure is 0.4%; as for `NC[C@H]1O[C@H](O[C@H]2[C@H](O[C@@H]3O[C@H](CO)[C@@H](O)[C@H]3O)[C@@H](O)[C@H](N)C[C@@H]2N)[C@H](N)[C@@H](O)[C@@H]1O` [Ribostamycin (sulfate)], 0.8%. As to `O=C(CCc1ccc(O)cc1)c1c(O)cc(O[C@@H]2O[C@H](CO)[C@@H](O)[C@H](O)[C@H]2O)cc1O` [Trilobatin], the “OC43 Inhibition rate” value is listed as -0.5%. For the compound `COc1ccc2[nH]cc(CCNC(C)=O)c2c1` [Melatonin], the “OC43 Inhibition rate” value is given as -0.1%. Still for that read-out and setting: as for `C=CC[C@@H]1/C=C(\C)C[C@H](C)C[C@H](OC)[C@H]2O[C@@](O)(C(=O)C(=O)N3CCCC[C@H]3C(=O)O[C@H](/C(C)=C/[C@@H]3CC[C@@H](O)[C@H](OC)C3)[C@H](C)[C@@H](O)CC1=O)[C@H](C)C[C@@H]2OC` [Tacrolimus (monohydrate)], the figure is 5%; as for `CC1=C(/C=C/C(C)=C/C=C/C(C)=C/C(=O)O)C(C)(C)CCC1=O` [all-trans-4-Oxoretinoic acid], 2.4%. As to `O=C(O)CCC(=O)O` [Disodium succinate], the “OC43 Inhibition rate” value (OC43 Inhibition rate, 24 h) is -2.2%.

Consider `CC1(C)CCC[C@](C)([C@H]2CC[C@]3(C)[C@@H]2[C@H](O)C[C@@H]2[C@@]4(C)CC[C@H](O)C(C)(C)[C@@H]4CC[C@]23C)O1` [Panaxadiol], for which the “OC43 Inhibition rate” value is listed as 24.1%. As to `Cc1ncc([N+](=O)[O-])n1CCO` [Metronidazole], the “OC43 Inhibition rate” value worked out at 16.2%. As for `O=C(/C=C/c1ccc(O)c2c1[C@H](C(=O)O[C@H](Cc1ccc(O)c(O)c1)C(=O)O)[C@@H](c1ccc(O)c(O)c1)O2)O[C@H](Cc1ccc(O)c(O)c1)C(=O)O` [Magnesium Lithospermate B], the “OC43 Inhibition rate” value was 2.9%. In the case of `CCCCCCCCC(=O)OCC` [Ethyl nonanoate], the “OC43 Inhibition rate” value is recorded as 2.4%.

For `c1ccc2c(-c3nccs3)c[nH]c2c1` [Camalexin], the “OC43 Inhibition rate” value stood at 23.4%. On to `CC(C)=CCc1cc(-c2coc3cc(O)ccc3c2=O)ccc1O` [Neobavaisoflavone], for which the “OC43 Inhibition rate” value amounted to 18.1%. As for `C1CCN2C[C@H]3C[C@H](CN4CCCC[C@@H]34)[C@H]2C1` [(+)-Sparteine (sulfate pentahydrate)], the “OC43 Inhibition rate” value (OC43 Inhibition rate, 24 h) is 3.3%. In the case of `COc1cc2ccc(=O)oc2c(OC)c1O` [Isofraxidin], the “OC43 Inhibition rate” value is recorded as 0.6%. `CCC/C=C1\OC(=O)C2=C1CC[C@@H](O)[C@H]2O` [Senkyunolide H]: the “OC43 Inhibition rate” value is given as -0.5%. Take `CC(=O)O[C@H]1C[C@H](O[C@H]2[C@@H](O)C[C@H](O[C@H]3[C@@H](O)C[C@H](O[C@H]4CC[C@@]5(C)[C@H](CC[C@@H]6[C@@H]5C[C@@H](O)[C@]5(C)[C@@H](C7=CC(=O)OC7)CC[C@]65O)C4)O[C@@H]3C)O[C@@H]2C)O[C@H](C)[C@H]1O[C@@H]1O[C@H](CO)[C@@H](O)[C@H](O)[C@H]1O` [Lanatoside C]: the “OC43 Inhibition rate” value was -7.7%. Same read-out and setting: as for `O=C(O)C#Cc1ccccc1` [Phenylpropiolic acid], the figure is -0.8%.
